From paper PMC11900815
These are yes or no findings as the source states them, for the method shown. In cells and extracts the contact can be indirect. Some entries that bind do so weakly or less than the wild type.

Amino acid sequences for entries named in this document (tags omitted).
UniProt Q01196: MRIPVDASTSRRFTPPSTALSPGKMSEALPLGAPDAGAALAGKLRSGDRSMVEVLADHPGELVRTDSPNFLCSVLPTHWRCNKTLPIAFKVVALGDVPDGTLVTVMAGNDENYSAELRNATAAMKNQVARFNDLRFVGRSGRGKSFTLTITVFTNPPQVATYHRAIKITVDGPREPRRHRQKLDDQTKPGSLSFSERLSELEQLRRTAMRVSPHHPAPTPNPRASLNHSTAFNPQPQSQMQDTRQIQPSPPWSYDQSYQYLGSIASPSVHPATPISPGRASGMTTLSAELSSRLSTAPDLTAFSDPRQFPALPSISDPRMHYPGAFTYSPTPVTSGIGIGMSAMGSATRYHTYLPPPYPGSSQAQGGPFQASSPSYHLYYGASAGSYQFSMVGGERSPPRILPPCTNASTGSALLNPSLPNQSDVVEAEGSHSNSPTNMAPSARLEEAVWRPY

Molecular target: T1, Ligand dependent nuclear receptor corepressor (LCOR), endogenous (human (endogenous in A498, CAKI and HEK293T)) (UniProt Q96JN0)
T1 sequence: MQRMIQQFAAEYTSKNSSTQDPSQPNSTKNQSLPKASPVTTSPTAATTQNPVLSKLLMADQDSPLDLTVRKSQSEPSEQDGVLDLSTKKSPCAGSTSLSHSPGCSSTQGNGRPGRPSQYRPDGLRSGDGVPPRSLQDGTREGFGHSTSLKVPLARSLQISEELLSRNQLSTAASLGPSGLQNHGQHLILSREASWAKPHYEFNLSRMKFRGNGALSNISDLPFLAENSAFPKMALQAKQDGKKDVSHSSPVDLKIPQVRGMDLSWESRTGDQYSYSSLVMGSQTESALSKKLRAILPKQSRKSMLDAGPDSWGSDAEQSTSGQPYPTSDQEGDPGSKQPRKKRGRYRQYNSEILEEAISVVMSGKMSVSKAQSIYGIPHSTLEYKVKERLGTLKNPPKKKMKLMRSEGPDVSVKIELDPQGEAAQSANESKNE
Test: co-IP; endogenous proteins in A498, CAKI and HEK293T lysates; primary antibody or IgG overnight at 4°C, protein A/G magnetic beads 4 h, washed with RIPA, western blot

Question: “RUNX family transcription factor 1 (RUNX1), endogenous (from UniProt Q01196 1-453)” was tested. Which binding did it give?
Answer: binds
